Reference: PubChem BioAssay AID1347075 (National Center for Advancing Translational Sciences (NCATS), 2019)
About 5,500 (1.4%) of roughly 400,000 compounds were called active. Inconclusive results, whose numbers are uncertain, are shown with a selection of clear calls. The call rests on the fitted dose curve; in most records, active means well fitted cell-killing curve with a large enough effect; inconclusive means small, poorly fitted or top-dose-only effect, or effect the other way; inactive means flat fitted curve, though single readings scatter. Potencies beside an inconclusive call are fits to weak or partial responses and may not hold up.

assay: qHTS assay for MDR1-selective chemotherapeutics: Primary screen using the parental adenocarcinoma cell KB-3-1; conditions: KB-3-1 viability, CellTiter-Glo ATP luminescence, 72 h; activity change, negative = cytotoxic: at 46.1 µM (top of the series); further: nearly all actives have a fitted effect of over 60% in size
How it was run: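 Here the drug-naive KB-3-1 line serves as comparator for MDR sub-line selectivity; cells received compound titrations, 72 h at 37 °C, then CellTiter-Glo readout.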
On the % scale 0 is the no-effect control and ±100 the full control effect; potency means the concentration at half of the fitted maximal effect.

| Structure (SMILES) | activity change, negative = cytotoxic | Potency |
| --- | --- | --- |
| Cc1cc(NC(=O)CSc2nccn2-c2cccc(F)c2)no1 | inactive: 2.45% | – |
| O=C(CCCc1nc(-c2ccccc2)no1)Nc1cc(C(F)(F)F)cc(C(F)(F)F)c1 | inactive: 2.76% | – |
| CCCC(=O)Nc1ccc2c(c1)c1ccccc1n2CC | – | inconclusive: 29.1 µM [cytotoxic, single point] |
| Cc1nn(-c2ccccc2)c2c1C(c1ccc(Cl)cc1)N(c1ccccc1)C(=O)N2 (stereo not drawn) | – | inconclusive: 29.1 µM [cytotoxic, single point] |
| Cc1ccc(OCC(=O)NNC(=S)NC(=O)C2CCCCC2)c(C)c1 | – | inconclusive: 29.1 µM [cytotoxic, single point] |
| COc1cc(NC(=O)c2ccc3c(c2)S(=O)(=O)N=C2CCCCCN23)cc(OC)c1 | – | inconclusive: 16.4 µM [rising, single point] |
| O=c1cc(CSc2nnc(Nc3ccccc3)s2)nc2sccn12 | – | inconclusive: 29.1 µM [cytotoxic, single point] |
| Cn1nnnc1Sc1ncnc2scc(-c3cccs3)c12 | – | inconclusive: 29.1 µM [cytotoxic, single point] |
| Cc1ccccc1C(=O)NNC(=S)NC(=O)c1cccnc1 | – | inconclusive: 20.6 µM [cytotoxic, single point] |
| O=C(O)C(Cc1c[nH]c2ccccc12)NS(=O)(=O)c1cccc2nsnc12 (stereo not drawn) | inactive: -0.119% | – |
| N#Cc1nc(Cc2cccc3ccccc23)oc1NCc1ccc(F)cc1 | – | inconclusive: 29.1 µM [cytotoxic, single point] |
| COc1cccc(NC(=O)CCSc2ccc3ccccc3n2)c1 | inactive: 2.68% | – |
| Cc1cc(C)cc(OCC(=O)Nc2ccc3c(c2)C(=O)c2ccccc2C3=O)c1 | – | inconclusive: 25.9 µM [cytotoxic, partial curve, poor fit] |
| CC1=NN(C(N)=S)C(=O)C1N=Nc1ccc(O)cc1 (stereo not drawn) | – | inconclusive: 23.1 µM [cytotoxic, single point] |
| Cc1cc(C(=O)NC(=S)Nc2ccccc2N2CCOCC2)ccc1[N+](=O)[O-] | – | inconclusive: 20.6 µM [cytotoxic, single point] |
| COc1ccc(/C=C/c2cc[n+](C)c3ccccc23)cc1OC | – | inconclusive: 0.0116 µM [cytotoxic, full curve, poor fit] |
| O=C(CN(c1cc(C(F)(F)F)ccc1Cl)S(=O)(=O)c1ccccc1)NCCc1ccccc1 | inactive: -6.04% | – |
| Cc1ccc2[nH]c(=O)c(CN(CCO)Cc3nnnn3Cc3ccccc3)cc2c1 | – | inconclusive: 14.6 µM [rising, partial curve] |
| CCOc1ccc(CCNC(=O)c2ccc3c(c2)N(Cc2ccccc2)C(=O)c2ccccc2S3=O)cc1OCC (stereo not drawn) | – | inconclusive: 29.1 µM [cytotoxic, single point] |
| C#CCOCCOCCOCCNc1nc(N2CCN(C(=O)[C@H]([C@@H](C)CC)n3cc(CCCN=C(N)N)nn3)CC2)nc(N2CCN(C(=O)[C@H]([C@@H](C)CC)n3cc(CCC(=O)O)nn3)CC2)n1 | inconclusive: 35.5% | – |
| O=C(CN1CCCCC1)NNc1nc(-c2ccccc2)c2cc(Cl)ccc2n1 | – | inconclusive: 29.1 µM [cytotoxic, single point] |
| Cc1cc(C)c(S(=O)(=O)NCCc2cc3ccc(C)cc3[nH]c2=O)c(C)c1 | inactive: 18.7% | – |

| Structure (SMILES) | activity change, negative = cytotoxic | Potency |
| --- | --- | --- |
| O=C(CSc1nnc(-c2ccco2)o1)NC(=O)Cc1ccccc1 | inactive: -5.42% | – |
| COc1ccc(-c2nnc(SCC(=O)c3ccc(C)o3)o2)cc1 | – | inconclusive: 29.1 µM [cytotoxic, single point] |
| CCN(CC(=O)Nc1c(F)cccc1F)C(=O)c1ccc(C2SCCS2)cc1 | inactive: -0.0653% | – |
| COc1ccc(-c2cc(C)no2)cc1S(=O)(=O)NCC(C)c1ccccc1 (stereo not drawn) | inconclusive: -33.6% [cytotoxic] | – |
| O=C(OC(C(=O)NCc1ccccc1)c1ccccc1)c1ccco1 (stereo not drawn) | – | inconclusive: 8.2 µM [rising, partial curve] |
| Cc1cccc(Cc2cnc(NC(=O)C3=NCCN3)s2)c1 | – | inconclusive: 29.1 µM [cytotoxic, single point] |
| CCOc1ccccc1N1CCN(CC(=O)Nc2nc(C)c(C(=O)N(C)C)s2)CC1 | – | inconclusive: 13 µM [rising, partial curve, poor fit] |
| CCOC(=O)c1ccccc1NC(=O)Cn1cnc2c(cnn2-c2ccccc2)c1=O | inactive: 15% | – |
| CCOc1ccc(C(=O)Nc2ccc(-c3nc4cc(C)ccc4o3)cc2)cc1 | – | inconclusive: 4.11 µM [cytotoxic, full curve] |
| O=C1C(Cl)=C(Nc2ccccc2O)C(=O)N1c1ccccc1 | – | inconclusive: 23.1 µM [rising, single point] |
| CCOc1ccc(C(=O)NNC(=O)CNC(=O)c2ccc(C)s2)cc1OC | inactive: 0.204% | – |
| Cn1c(=O)n(Cc2ccccc2Cl)c(=O)c2c1[nH]c(=S)n2C | inactive: 13.7% | – |
| COc1ccc(-c2csc(NC(=O)CN3C(=O)NC4(CCCC4)C3=O)n2)c(OC)c1 | – | inconclusive: 29.1 µM [rising, single point] |
| COC/C=C/C1=CC2=CC(=O)C(C)(OC(=O)c3cnc4ccccc4n3)C(=O)C2=CN1Cc1ccc(OC)cc1 (stereo not drawn) | – | inconclusive: 32.6 µM [cytotoxic, partial curve, poor fit] |
| Cc1cc(C)n(-c2ncc(C#N)cn2)n1 | – | inconclusive: 11.6 µM [cytotoxic, partial curve, poor fit] |
| CCOC1CCCC(n2cnc3c(=S)nc[nH]c32)O1 (stereo not drawn) | – | inconclusive: 32.6 µM [cytotoxic, single point] |
| COc1cc(C(=O)C(=O)N2CCN(c3ccccc3)CC2)cc(OC)c1OC | – | active: 20.6 µM |
| O=C(NCC1CCCO1)c1ccc(Oc2ccc([N+](=O)[O-])cc2)cc1 (stereo not drawn) | – | inconclusive: 16.4 µM [cytotoxic, partial curve, poor fit] |
| COc1ccc(C(=O)Nc2ccc(C)cn2)c(OC)c1 | – | inconclusive: 20.6 µM [cytotoxic, single point] |
| CCOc1ccccc1C1CC(=O)NC2=C1C(=O)CCC2 (stereo not drawn) | – | inconclusive: 23.1 µM [cytotoxic, single point] |
| O=[N+]([O-])c1cc2ncccc2c2ncccc12 | – | inconclusive: 29.1 µM [cytotoxic, partial curve, poor fit] |

Record cards, from the list above:
CCOC(=O)c1ccccc1NC(=O)Cn1cnc2c(cnn2-c2ccccc2)c1=O in the list: activity change, negative = cytotoxic: inactive: 15%
CCOc1ccccc1C1CC(=O)NC2=C1C(=O)CCC2 (stereo not drawn) in the list: Potency: inconclusive: 23.1 µM [cytotoxic, single point]
O=C(CSc1nnc(-c2ccco2)o1)NC(=O)Cc1ccccc1 in the list: activity change, negative = cytotoxic: inactive: -5.42%
